# Some results were stated once for a whole list of compounds, not compound by compound. Some compounds share one range, which may span the group rather than tell each member.
# Test: Binding of IP-10 derived short peptides to TiO2 P25 particles, absorbance at 206 nm (Experiment 2)
# Details: 50 μg/ml peptide, 25 mg TiO2 P25, 3 h room temperature, reduction of absorbance at 206 nm vs peptide alone, FIG. 5
# Experimental: 5 mg of eleven peptides (Table 2) were dissolved with 1 ml of water for molecular biology (Sigma-Aldrich, St. Louis, Mo., USA). Working solutions of the different peptides were diluted further with phosphate buffered saline (PBS) (PAA Laboratories GmbH, Pasching, Austria) to 50 μg/ml. 25 mg of TiO2 (P25 from Degussa and P90 from Sigma-Aldrich) were used for the studies. Briefly, 250 μl of peptide solution was incubated with 25 mg of TiO2 powder with different particle size (P25 and P90) in an orbital shaker (IKA Vibrax VXR basic, Staufen, Germany) for 3 h at room temperature. Different controls were used and processed in parallel with the other samples: solutions with peptides alone, PBS alone and P25/P90 in PBS. After this time, all the samples were centrifuged at 13.000×g for 3 min at 20° C. 100 μl of the supernatant solution was carefully collected and placed in a 96-well UV plate and read with PowerWave™ microplate spectrophotometer from BioTek. Absorbances at 206 nm and also spectrum curves for each sample were collected and analysed.
substance,measurement,value
ATMKK (listed as Homo sapiens) [IP1],binding capacity for TiO2 P25,85-96%
KKGEI (IP-10 derived peptide) [IP5],binding capacity for TiO2 P25,85-96%
KKKGE (listed as Homo sapiens) [IP4],binding capacity for TiO2 P25,85-96%
KKKKK (Control peptide) [IP11],binding capacity for TiO2 P25,85-96%
MKKKG (listed as Homo sapiens) [IP3],binding capacity for TiO2 P25,85-96%
TMKKK (listed as Homo sapiens) [IP2],binding capacity for TiO2 P25,85-96%
